Assay: Corrosivity of different forms of ATBS on carbon steel
Conditions: for Final weight (g) t+15 days: carbon steel plate coated with 20 g of product, oven at 50°C, 2 weeks; for % loss: weight loss of carbon steel plate, 50°C, t+15 days

SMILES	Final weight (g) t+15 days [g]	% loss [%]	Final weight (g) t+15 days (potassium salt) [g]	% loss (potassium salt) [%]
C=CC(=O)NC(C)(C)CS(=O)(=O)O [ATBS AH, 2-acrylamido-2-methylpropanesulphonic acid]	8.6582	7.46	–	–
C=CC(=O)NC(C)(C)CS(=O)(=O)[O-].[K+] [ATBS.K AK2a, 2-acrylamido-2-methylpropanesulphonic acid potassium salt]	–	–	9.3526	1.79
C=CC(=O)NC(C)(C)CS(=O)(=O)[O-].[K+] [ATBS.K CE-AK2c, 2-acrylamido-2-methylpropanesulphonic acid potassium salt]	–	–	9.1274	3.77
C=CC(=O)NC(C)(C)CS(=O)(=O)[O-].[K+] [ATBS.K CE-AK2d, 2-acrylamido-2-methylpropanesulphonic acid potassium salt]	–	–	9.1210	2.44
C=CC(=O)NC(C)(C)CS(=O)(=O)[O-].[K+] [ATBS.K CE-AK2e, 2-acrylamido-2-methylpropanesulphonic acid potassium salt]	–	–	9.0219	4.14
